This is one part of the list. These are further read-outs of the screen, such as a control signal, another cell line or another target. No call is given for them. The list favours compounds with an active or inconclusive main result. The note in brackets gives the kind of curve behind each potency; many fits are weak.
Experiment: qHTS Assay for Lipid Storage Modulators in Drosophila S3 Cells;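 on cell number change: cells counted by Cell Tracker Red CMTPX staining in the red channel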
Settings: BODIPY lipid droplet fluorescence, 18-24 h; for cell number change: measured here: cell count max response, cells fed with added oleic acid
How it was run: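 Drosophila S3 cells loaded with oleic acid (400 uM, as added) and compounds at several concentrations; lipid droplets imaged by 488-nm laser-scanning cytometry, 500–530 nm intensity and object ratio to cell channel. Percent activity normalized to 20 uM Triacsin C.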

[1] = measured here: lipid fluorescence (Fed channel) AC50, cells fed with added oleic acid
[2] = measured here: cell number channel AC50, cells fed with added oleic acid

Row | SMILES | cell number change [%] | AC50 [1] | AC50 [2]
1 | CCOC(=O)C1=C(O)/C(=C/c2ccc(OCC(=O)O)c(OCC)c2)SC1=Nc1ccc(OC)cc1 | -16.7 | 2.59 µM [falling, full curve, poor fit] | 
2 | COc1ccccc1N1CCN(C(=O)/C=C/c2ccc3c(c2)OCO3)CC1 | 29.7 |  | 
3 | CCOc1ccc(NS(=O)(=O)c2ccc(C(=O)NCC(c3ccco3)N3CCCC3)cc2)cc1 (stereo unspecified) | -30.7 |  | 29.1 µM [falling, single point]
4 | Cc1ccc(/C(N)=N/OC(=O)c2cccc(Cn3cc(C(F)(F)F)ccc3=O)c2)cc1 | -26.2 | 29.1 µM [falling, single point] | 
5 | Cc1cc(N/N=C/c2ccc(Cl)cc2Cl)nc(NCc2ccccc2)n1 | -82.9 | 11.6 µM [falling, partial curve] | 
6 | Cc1ccc(OCCC(=O)N(CCC(C)C)c2c(N)n(Cc3ccccc3)c(=O)[nH]c2=O)cc1 | 13.7 |  | 
7 | C/C(=N\NC(=O)c1cc2ccccc2cc1O)c1ccc2c(c1)OCO2 | -30.5 | 8.2 µM [falling, single point] | 1.03 µM [falling, full curve, poor fit]
8 | COc1ccc(-c2nn(-c3ccccc3)cc2C2CC(c3cccs3)=NN2C(=O)CCC(=O)O)cc1 (stereo unspecified) | -1.36 |  | 
9 | CCOC(=O)CC(C#N)c1c[nH]c2ccccc12 (stereo unspecified) |  | 0.651 µM [falling, partial curve, poor fit] | 
10 | O=C(CN1CCN(S(=O)(=O)N2CCCCCC2)CC1)Nc1cc(Cl)ccc1Cl | 6.41 |  | 
11 | O=C(c1cccc(Oc2ccccc2)c1)N1CCOCC1 | 29.8 | 4.61 µM [rising, partial curve] | 
12 | COCCNC(=O)c1ccccc1NC(=O)c1ccccc1N(C)S(=O)(=O)c1ccccc1 | 10.8 | 29.1 µM [rising, single point] | 
13 | CCOc1ccc(N(CC(=O)NCCc2ccccc2)C(=O)CCC(=O)Nc2cc(C)ccn2)cc1 | 2.56 | 6.51 µM [rising, partial curve] | 
14 | C=CCN(CC=C)Cc1c(C)[nH]c2ccc(C(=O)OCC)cc2c1=O | -22.8 |  | 0.00461 µM [falling, full curve, poor fit]
15 | COc1ccccc1NC(=O)COC(=O)/C=C/c1ccccc1[N+](=O)[O-] | -30.8 |  | 29.1 µM [falling, single point]
16 | COc1ccc(CCN2CC(C(=O)Nc3cccc(C(C)=O)c3)CC2=O)cc1OC (stereo unspecified) | -16.2 | 0.00517 µM [falling, full curve, poor fit] | 
17 | COc1ccc(N2CC(C(=O)N3CCN(Cc4ccc5c(c4)OCO5)CC3)CC2=O)cc1 (stereo unspecified) | -30.6 | 29.1 µM [falling, single point] | 7.31 µM [falling, partial curve, poor fit]

Given tab-delimited: two of the compounds above.
Row	SMILES	cell number change [%]	AC50 [1]	AC50 [2]
6	Cc1ccc(OCCC(=O)N(CCC(C)C)c2c(N)n(Cc3ccccc3)c(=O)[nH]c2=O)cc1	13.7		
10	O=C(CN1CCN(S(=O)(=O)N2CCCCCC2)CC1)Nc1cc(Cl)ccc1Cl	6.41		
